Experimental data from patent publication EP1790655B1, “Biologically active peptides” (CMS Peptides Patent Holding Company Limited, priority 2001, dated 2003).
Read-outs that look alike come from different tables or passages of the source. Not every detail of the peptide structures is certain; ends, links or a residue may be inferred. Marks after values point to notes of the source that are not given here. Some entries repeat one wording, which the source may state once for all of them. Residues, ends and D or L forms follow the SMILES beside them.

What was measured:
T lymphocyte = T lymphocyte transformation test (ConA-stimulated spleen cells, MTT) after in vivo dosing of healthy mice; set-up: species or system BALB/c Mice; conditions: IFN-γ, IL-2 3×10^5IU/kg/day, X±SD
NK cell = NK cell cytotoxicity activity test (spleen cells against YAC-1 target cells, MTT) after in vivo dosing; set-up: species or system BALB/c Mice; conditions: IFN-γ, IL-2 3×10^5IU/kg/day, X±SD
[1] = tested on: secretion of interleukin-2 (IL-2) by T lymphocytes; experiment: T lymphocyte IL-2 secretion test (HT-2 cell bioassay of spleen cell supernatant); format: in vivo, BALB/c Mice; conditions: IFN-γ, IL-2 3×10^5IU/kg/day, X±SD
anti-SRBC antibody = experiment: Sheep Red Blood Cell (SRBC) hemolysis test, antibody formation; format: in vivo, BALB/c mice; conditions: IFN-γ, IL-2 3×10^5IU/kg/day, SRBC i.p. on day 12, X±SD
mononuclear phagocyte = experiment: carbon particle clearance test, phagocytosis function of mononuclear phagocyte; format: in vivo, BALB/c Mice; conditions: IFN-γ, IL-2 3×10^5IU/kg/day, X±SD
thymus gland = experiment: immunity organ weight test, thymus gland; format: in vivo, BALB/c Mice; conditions: IFN-γ, IL-2 3×10^5IU/kg/day, X±SD
[2] = tested on: Sheep red blood cells (SRBC); experiment: humoral immunity (SRBC hemolysis index) of mice bearing transplanted B16 melanoma; format: in vivo, C57BL/6 mice; conditions: 30 days, SRBC on the 27th day
[3] = tested on: Masugi nephritis rat model; conditions: for urine protein level: 24 hours urine
spleen = experiment: immunity organ weight test, spleen; format: in vivo, BALB/c Mice; conditions: peptide 500µg/kg/day i.p. once per day for 15 days; X±SD
[4] = peptide 500µg/kg/day i.p. once per day for 15 days
[5] = peptide 5µg/kg/day i.p. once per day for 15 days
[6] = peptide 0.5µg/kg/day i.p. once per day for 15 days
[7] = peptide 50µg/kg/day i.p. once per day for 15 days
[8] = after three weeks of treatment, peptides 50µg/kg/day, hydrocortisone 3.3mg/kg/day (halved after first week) i.p.

SMILES	Sample serum index (anti-SRBC antibody formation) (anti-SRBC antibody; [6])	Sample serum index (anti-SRBC antibody formation) (anti-SRBC antibody; [5])	Sample serum index (anti-SRBC antibody formation) (anti-SRBC antibody; [7])	Sample serum index (anti-SRBC antibody formation) (anti-SRBC antibody; [4])	phagocytotic index (mononuclear phagocyte; [5])	Thymus gland index (thymus weight/body weight) (thymus gland; [5])	NK cell activity index (NK cell; [4]) [%]	Thymus gland index (thymus weight/body weight) (thymus gland; [6])	Thymus gland index (thymus weight/body weight) (thymus gland; [7])	Thymus gland index (thymus weight/body weight) (thymus gland; [4])	further results
CC(C)C[C@H](NC(=O)[C@@H](NC(=O)[C@@H]1CCCN1C(=O)[C@H](Cc1c[nH]cn1)NC(=O)[C@H](CCC(=O)O)NC(=O)[C@H](CCC(=O)O)NC(=O)[C@@H]1CCCN1C(=O)[C@H](C)NC(=O)[C@@H](NC(=O)[C@H](CCCNC(=N)N)NC(=O)[C@@H](N)CC(C)C)C(C)C)[C@@H](C)O)C(=O)O [CMS009] (H-LRVAPEEHPTL-OH)	2±1 Unit	79±18*^@ Unit	13±5 Unit	113+22 *^@^ Unit	6.9±0.9*^	–	–	–	–	–	stimulation index (T lymphocyte transformation) (T lymphocyte; [4]): 1.7±0.2; NK cell activity index (NK cell; [5]): 92±6*^@^ %; Sample IL-2 activity (T lymphocyte secreting IL-2) [1, 4]: 114±13*^@^ IU
CC(C)C[C@H](NC(=O)[C@@H](NC(=O)[C@@H]1CCCN1C(=O)[C@H](Cc1c[nH]cn1)NC(=O)[C@H](CCC(=O)O)NC(=O)[C@H](CCC(=O)O)NC(=O)[C@@H]1CCCN1C(=O)[C@H](C)NC(=O)[C@@H](NC(=O)[C@@H](N)CCCNC(=N)N)C(C)C)[C@@H](C)O)C(=O)O [CMS011] (H-RVAPEEHPTL-OH)	5±3 Unit	115±27*^@^ Unit	67±9*^@ Unit	188±16*^@^ Unit	6.4±1.1	0.22±0.04 %	–	–	–	–	stimulation index (T lymphocyte transformation) (T lymphocyte; [6]): 1.6±0.4; NK cell activity index (NK cell; [6]): 79±3 %; NK cell activity index (NK cell; [5]): 76±10 %; Sample IL-2 activity (T lymphocyte secreting IL-2) [1, 6]: 101±19*^@^ IU; Hemolysis index ([2]; 0.5µg/kg i.p. once per day): 32.0±14.7; Hemolysis index ([2]; 500µg/kg i.p. once per day): 34.4±19.4
CC[C@H](C)[C@H](NC(=O)CNC(=O)[C@H](CS)NC(=O)[C@H](C)NC(=O)[C@H](CCC(=O)O)NC(=O)[C@H](CCSC)NC(=O)CNC(=O)[C@@H](N)CC(C)C)C(=O)N[C@@H](Cc1c[nH]cn1)C(=O)N[C@@H](CCC(=O)O)C(=O)N[C@H](C(=O)N[C@H](C(=O)N[C@@H](Cc1ccc(O)cc1)C(=O)O)[C@@H](C)O)[C@@H](C)O [CMS012] (H-LGMEACGIHETTY-OH)	–	–	–	–	–	–	–	–	–	–	Sample IL-2 activity (T lymphocyte secreting IL-2) [1, 6]: 59±13 IU; Sample IL-2 activity (T lymphocyte secreting IL-2) [1, 5]: 65±16 IU
CC(C)C[C@H](NC(=O)[C@@H](NC(=O)[C@@H]1CCCN1C(=O)[C@H](Cc1c[nH]cn1)NC(=O)[C@H](CCC(=O)O)NC(=O)[C@H](CCC(=O)O)NC(=O)[C@@H]1CCCN1C(=O)[C@H](C)NC(=O)[C@@H](NC(=O)[C@H](CCCNC(=N)N)NC(=O)[C@@H](N)CC(C)C)C(C)C)C(C)C)C(=O)O [CMS013] (H-LRVAPEEHPVL-OH)	7±1 Unit	93±28*^@ Unit	70±9*^@ Unit	80±16*^@ Unit	6.7±0.2	0.21±0.05 %	84±9	–	–	–	–
CSCC[C@H](NC(=O)CNC(=O)[C@@H](N)C(C)C)C(=O)NCC(=O)N[C@@H](CCC(=O)O)C(=O)N[C@@H](CCCCN)C(=O)N[C@@H](CC(=O)O)C(=O)N[C@@H](CO)C(=O)N[C@@H](Cc1ccc(O)cc1)C(=O)O [CMS018] (H-VGMGEKDSY-OH)	3±1 Unit	–	–	66±16 Unit	6.7±1.2	0.24±0.04*^@^ %	–	0.20±0.03 %	0.23±0.02*^@^ %	–	urine protein level ([3]; Week 1, peptides 50µg/kg/day, hydrocortisone 3.3mg/kg/day i.p. once per day): 7.0 ± 3.7 mg; urine protein level ([3]; Week 2, peptides 50µg/kg/day i.p. once per day, hydrocortisone 3.3mg/kg/day, dose halved after the first week): 5.5 ± 7.9 mg; urine protein level ([3]; Week 3, peptides 50µg/kg/day i.p. once per day, hydrocortisone 3.3mg/kg/day, dose halved after the first week): 3.3 ± 3.4 mg; Serum creatinine level [3, 8]: 67 ± 1 µmol/L; spleen index (mean spleen weight / mean body weight) [3, 8]: 3.3±0.8 x10-3; renal pathological microscopic examination ([3]; peptides 50µg/kg/day i.p. for 3 weeks, 6 heaviest kidneys per group): all pathological parameters of all rats were normal
CSCC[C@H](NC(=O)CNC(=O)[C@@H](N)C(C)C)C(=O)NCC(=O)N[C@@H](CCC(N)=O)C(=O)N[C@@H](CCCCN)C(=O)N[C@@H](CC(=O)O)C(=O)N[C@@H](CO)C(=O)N[C@@H](Cc1ccc(O)cc1)C(=O)N[C@H](C(=O)O)C(C)C [CMS020] (H-VGMGQKDSYV-OH)	–	–	–	–	–	–	–	023±0.05*^@^ %	–	–	–
CSCC[C@H](N)C(=O)N[C@@H](C)C(=O)N[C@H](C(=O)N[C@@H](C)C(=O)N[C@@H](C)C(=O)N[C@@H](CO)C(=O)N[C@@H](CO)C(=O)N[C@@H](CO)C(=O)N[C@@H](CO)C(=O)N[C@@H](CC(C)C)C(=O)O)[C@@H](C)O [CMS021] (H-MATAASSSSL-OH)	57±9*^@ Unit	82±30*^@ Unit	94±20*^@^ Unit	–	–	0.20±0.06 %	–	–	–	–	stimulation index (T lymphocyte transformation) (T lymphocyte; [4]): 1.6±0.1; NK cell activity index (NK cell; [7]): 88±12*^@^ %
N[C@@H](Cc1ccc(O)cc1)C(=O)N[C@@H](CO)C(=O)N[C@@H](Cc1ccccc1)C(=O)O [CMS022, Tyr Ser Phe] (H-Tyr-Ser-Phe-OH)	–	–	110±16*^@^ Unit	68±31 Unit	–	0.25±0.04*^@^ %	–	0.21±0.06 %	0.30±0.03*^@^ %	0.26±0.05 %	NK cell activity index (NK cell; [6]): 73±11 %; Sample IL-2 activity (T lymphocyte secreting IL-2) [1, 6]: 109±14*^@^ IU; phagocytotic index (mononuclear phagocyte; [4]): 7.4±0.6*^@^
CC[C@H](C)[C@H](NC(=O)[C@H](CO)NC(=O)[C@H](CC(N)=O)NC(=O)[C@H](Cc1ccc(O)cc1)NC(=O)[C@@H](NC(=O)[C@@H](N)[C@@H](C)O)[C@@H](C)O)C(=O)N[C@@H](CCSC)C(=O)O [CMS026, Thr Thr Tyr Asn Ser Ile Met] (H-TTYNSIM-OH)	19±6 Unit	191±17*^@^ Unit	98±9*^@^ Unit	–	–	0.31±0.05*^@^ %	89±7	0.21±0.05 %	0.27±0.02*^@^ %	0.20±0.03 %	NK cell activity index (NK cell; [7]): 76±9 %
CSCC[C@H](NC(=O)[C@H](CC(N)=O)NC(=O)[C@H](CCC(=O)O)NC(=O)[C@H](CCC(=O)O)NC(=O)[C@@H](N)Cc1ccccc1)C(=O)O [CMS027, Phe Glu Glu Asn Met] (H-FEENM-OH)	99±14*^@^ Unit	117145*^@^ Unit	93±11*^@^ Unit	–	–	–	88±8	–	0.21±0.03*^@^ %	0.20±0.03*^ %	phagocytotic index (mononuclear phagocyte; [6]): 6.4±0.6; Spleen index (spleen weight/body weight) (spleen): 0.37±0.03 %
N[C@@H](Cc1ccccc1)C(=O)N[C@@H](CCC(=O)O)C(=O)N1CCC[C@H]1C(=O)N[C@@H](CO)C(=O)N[C@@H](Cc1ccccc1)C(=O)O [CMS028, Phe Glu Pro Ser Phe] (H-FEPSF-OH)	18±5 Unit	121±48*^@^ Unit	–	–	–	0.28±0.06*^@^ %	90±5	0.20±0.06 %	0.18±0.04 %	0.19±0.02 %	NK cell activity index (NK cell; [6]): 79±3 %
N[C@@H](Cc1ccccc1)C(=O)N[C@@H](CCC(=O)O)C(=O)N[C@@H](CO)C(=O)N[C@@H](Cc1ccccc1)C(=O)O [CMS033, Phe Glu Ser Phe] (H-FESF-OH)	78±12*^@ Unit	128±39*^@^ Unit	112±15*^@^ Unit	143±27*^@^ Unit	–	0.20±0.02 %	89±8	–	–	0.25±0.04*^@^ %	–
